According to article PMC6969153:
No constants are given. Whether binding was seen depends on the method and setting. Binding seen in cells or lysates may run through a third protein. These calls come from enrichment with a bait or labelling near it, and not all partners need be listed.

Amino acid sequences for entries named in this document (tags omitted).
UniProt Q14258: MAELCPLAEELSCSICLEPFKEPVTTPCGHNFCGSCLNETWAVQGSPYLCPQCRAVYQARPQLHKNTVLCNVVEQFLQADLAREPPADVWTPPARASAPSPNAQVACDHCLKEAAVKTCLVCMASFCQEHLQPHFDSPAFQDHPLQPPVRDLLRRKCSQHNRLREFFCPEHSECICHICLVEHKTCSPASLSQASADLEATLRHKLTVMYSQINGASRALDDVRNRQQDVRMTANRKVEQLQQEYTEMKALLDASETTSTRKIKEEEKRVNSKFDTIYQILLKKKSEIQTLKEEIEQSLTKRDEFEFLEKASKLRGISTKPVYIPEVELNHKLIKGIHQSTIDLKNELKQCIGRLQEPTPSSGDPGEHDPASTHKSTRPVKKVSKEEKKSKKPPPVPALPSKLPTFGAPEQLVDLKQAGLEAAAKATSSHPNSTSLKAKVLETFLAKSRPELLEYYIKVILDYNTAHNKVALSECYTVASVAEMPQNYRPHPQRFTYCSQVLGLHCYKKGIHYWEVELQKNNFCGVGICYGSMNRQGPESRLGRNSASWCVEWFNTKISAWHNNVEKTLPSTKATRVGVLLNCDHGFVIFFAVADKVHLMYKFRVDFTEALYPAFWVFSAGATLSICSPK
UniProt Q14145: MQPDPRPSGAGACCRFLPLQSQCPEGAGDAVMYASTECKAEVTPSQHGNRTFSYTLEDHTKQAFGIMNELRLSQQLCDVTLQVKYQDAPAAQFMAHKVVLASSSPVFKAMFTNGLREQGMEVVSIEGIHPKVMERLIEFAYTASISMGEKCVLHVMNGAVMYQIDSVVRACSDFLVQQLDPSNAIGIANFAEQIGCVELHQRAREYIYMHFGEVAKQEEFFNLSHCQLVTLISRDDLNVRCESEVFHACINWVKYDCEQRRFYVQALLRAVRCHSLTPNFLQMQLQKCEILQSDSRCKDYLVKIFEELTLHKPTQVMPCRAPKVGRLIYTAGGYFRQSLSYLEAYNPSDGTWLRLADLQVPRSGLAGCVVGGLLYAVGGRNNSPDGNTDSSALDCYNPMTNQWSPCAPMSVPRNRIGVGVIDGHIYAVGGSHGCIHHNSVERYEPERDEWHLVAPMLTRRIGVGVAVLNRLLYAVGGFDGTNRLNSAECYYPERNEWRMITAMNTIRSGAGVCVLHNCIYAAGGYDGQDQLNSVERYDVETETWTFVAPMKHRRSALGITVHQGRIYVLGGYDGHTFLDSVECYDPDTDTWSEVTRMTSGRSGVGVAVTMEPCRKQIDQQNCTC

Target: TRIM25 (bait of the co-immunoprecipitation analysed by mass spectrometry) (human) (UniProt Q14258)
Test: affinity purification with mass spectrometry; co-immunoprecipitation of TRIM25 and liquid chromatography-tandem mass spectrometry; cells not given

Keap1 (identified by mass spectrometry in the TRIM25 co-immunoprecipitate) (from UniProt Q14145 1-624)
binding: binds
